Here are results for two substances from article PMC7493855.

Sequences of proteins named here, by UniProt entry; tags and fusion partners are left off.
UniProt Q3URK3: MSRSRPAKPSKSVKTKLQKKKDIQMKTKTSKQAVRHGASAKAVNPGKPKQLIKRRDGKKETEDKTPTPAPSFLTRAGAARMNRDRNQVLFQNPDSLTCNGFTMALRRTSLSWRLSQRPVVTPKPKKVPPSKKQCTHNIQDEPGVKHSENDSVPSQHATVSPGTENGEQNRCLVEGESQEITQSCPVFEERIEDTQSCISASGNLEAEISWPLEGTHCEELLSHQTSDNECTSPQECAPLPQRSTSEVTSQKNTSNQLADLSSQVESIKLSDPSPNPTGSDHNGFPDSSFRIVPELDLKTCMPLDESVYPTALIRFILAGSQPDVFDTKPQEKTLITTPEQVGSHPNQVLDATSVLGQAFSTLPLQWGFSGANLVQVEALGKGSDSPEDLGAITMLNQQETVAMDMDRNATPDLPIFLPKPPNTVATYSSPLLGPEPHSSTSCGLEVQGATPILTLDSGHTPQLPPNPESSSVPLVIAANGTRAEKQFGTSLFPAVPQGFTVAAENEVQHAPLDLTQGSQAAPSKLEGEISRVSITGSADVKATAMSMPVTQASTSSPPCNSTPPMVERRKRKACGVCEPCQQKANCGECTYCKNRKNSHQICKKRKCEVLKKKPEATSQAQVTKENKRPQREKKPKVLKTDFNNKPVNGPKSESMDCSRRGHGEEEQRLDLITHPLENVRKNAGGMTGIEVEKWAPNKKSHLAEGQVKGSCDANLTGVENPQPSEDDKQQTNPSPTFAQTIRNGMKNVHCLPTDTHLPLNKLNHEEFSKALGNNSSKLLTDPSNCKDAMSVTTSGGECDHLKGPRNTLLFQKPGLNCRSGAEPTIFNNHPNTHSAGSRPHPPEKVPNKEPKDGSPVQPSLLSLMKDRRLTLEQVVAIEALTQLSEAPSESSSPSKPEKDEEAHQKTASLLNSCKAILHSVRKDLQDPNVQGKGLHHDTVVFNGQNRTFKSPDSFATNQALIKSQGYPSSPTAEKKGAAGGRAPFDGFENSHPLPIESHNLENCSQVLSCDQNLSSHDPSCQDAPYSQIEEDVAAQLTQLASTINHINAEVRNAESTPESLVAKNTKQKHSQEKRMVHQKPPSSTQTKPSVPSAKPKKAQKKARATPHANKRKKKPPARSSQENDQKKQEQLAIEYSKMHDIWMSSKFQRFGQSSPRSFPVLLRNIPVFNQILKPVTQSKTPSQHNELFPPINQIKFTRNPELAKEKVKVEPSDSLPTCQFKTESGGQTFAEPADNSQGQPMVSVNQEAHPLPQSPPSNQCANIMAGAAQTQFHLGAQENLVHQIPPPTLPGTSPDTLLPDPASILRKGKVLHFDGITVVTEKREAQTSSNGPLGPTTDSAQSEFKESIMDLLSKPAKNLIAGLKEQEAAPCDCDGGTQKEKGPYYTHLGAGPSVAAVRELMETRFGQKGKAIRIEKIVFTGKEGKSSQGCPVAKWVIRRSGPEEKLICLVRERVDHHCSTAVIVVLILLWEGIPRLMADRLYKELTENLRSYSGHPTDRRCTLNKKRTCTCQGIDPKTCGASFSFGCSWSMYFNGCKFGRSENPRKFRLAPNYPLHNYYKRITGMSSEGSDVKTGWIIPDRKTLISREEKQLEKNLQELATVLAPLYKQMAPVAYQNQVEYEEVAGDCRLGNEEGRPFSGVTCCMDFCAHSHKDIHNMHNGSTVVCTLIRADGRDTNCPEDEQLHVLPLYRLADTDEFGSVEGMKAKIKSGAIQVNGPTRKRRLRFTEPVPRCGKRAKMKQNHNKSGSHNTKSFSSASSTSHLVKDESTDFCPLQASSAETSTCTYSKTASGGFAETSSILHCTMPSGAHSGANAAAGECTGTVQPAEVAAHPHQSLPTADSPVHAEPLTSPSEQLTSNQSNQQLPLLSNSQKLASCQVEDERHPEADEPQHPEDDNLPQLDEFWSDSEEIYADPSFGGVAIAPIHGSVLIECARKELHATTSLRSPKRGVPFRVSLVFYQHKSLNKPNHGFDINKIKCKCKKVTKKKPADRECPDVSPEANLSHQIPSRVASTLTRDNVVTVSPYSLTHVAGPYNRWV
UniProt O09106: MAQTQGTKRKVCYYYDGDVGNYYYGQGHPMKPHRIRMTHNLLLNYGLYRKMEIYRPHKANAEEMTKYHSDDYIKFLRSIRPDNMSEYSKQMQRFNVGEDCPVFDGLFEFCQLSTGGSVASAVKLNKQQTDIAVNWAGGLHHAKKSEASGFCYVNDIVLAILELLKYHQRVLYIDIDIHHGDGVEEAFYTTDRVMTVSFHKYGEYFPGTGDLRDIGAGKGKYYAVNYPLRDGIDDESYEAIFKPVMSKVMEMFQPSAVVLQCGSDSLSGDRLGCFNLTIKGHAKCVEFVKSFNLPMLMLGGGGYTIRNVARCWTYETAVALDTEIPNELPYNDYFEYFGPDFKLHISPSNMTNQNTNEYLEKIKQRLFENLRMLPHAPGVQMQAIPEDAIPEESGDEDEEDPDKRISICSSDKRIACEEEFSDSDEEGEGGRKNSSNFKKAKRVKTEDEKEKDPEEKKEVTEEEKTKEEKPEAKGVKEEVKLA

These are yes or no findings as the source states them, for the method shown. In cells and extracts the contact can be indirect. Some results given as binding are weak or reduced against the parent protein; the word gives no strength.

The target in one test is T1, RFP-Olig2 (UniProt Q9EQW6).
T1 sequence: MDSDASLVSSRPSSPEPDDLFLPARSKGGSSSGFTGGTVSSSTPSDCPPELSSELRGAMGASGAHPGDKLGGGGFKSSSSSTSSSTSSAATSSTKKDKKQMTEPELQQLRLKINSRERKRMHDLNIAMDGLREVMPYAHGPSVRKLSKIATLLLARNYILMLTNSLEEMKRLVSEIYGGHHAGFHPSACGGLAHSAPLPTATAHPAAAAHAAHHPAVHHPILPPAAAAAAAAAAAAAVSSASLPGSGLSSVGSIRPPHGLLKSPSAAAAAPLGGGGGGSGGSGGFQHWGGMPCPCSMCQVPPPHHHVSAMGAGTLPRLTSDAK
As to the kind of experiment: co-IP; reciprocal: Hela cells co-transfected with GFP-TET1 and Olig2; IP with two antibodies against Olig2, blot with GFP antibody.

The target in test [1] is TET1 (ten-eleven translocation 1), endogenous in oligodendrocyte lineage cells (mouse (endogenous in primary mouse OPCs and OLs)) (UniProt Q3URK3). As to the kind of experiment: co-IP; IP of endogenous TET1 from lysates of mouse OPCs and OLs, Western blot with Olig2 and HDAC1 antibodies; normal IgG as control.

Regarding GFP-TET1 (from UniProt Q3URK3 1-2039), the binding entry with RFP-Olig2 was “binds”.
Consider “histone deacetylases 1 (HDAC1), endogenous in oligodendrocyte lineage cells (from UniProt O09106 1-482)”, for which, in test [1], the binding entry was “binds”.
